# Laboratory results reported in the supplement of paper PMC11637464.
# Where a name gives a salt, the structure may show the parent alone. The list shows a part of the results. Repeats are few or missing, and single values can be far off.
# Test system: primary mouse Muller glia with Ascl1 overexpression
# Test: progenitor-like (ProL) cell count fold change vs Ascl1-only control (log2 fold change); higher = more progenitor-like cells
# Description: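 Primary P11 mouse Muller glia carrying dox-inducible Ascl1 were treated with Tocriscreen Stem Cell Library compounds at 0.1, 1 or 10 uM together with doxycycline for 5 days, then profiled by sci-Plex hashing and sci-RNA-seq2. Cells were annotated by marker genes and cell-type counts per well were size-factor adjusted. Read-outs are the log2 fold change of Neuronal (NeuPre + bipolar) and ProL cell counts versus the Ascl1-only control wells of the same collection day, plus the raw number of recovered cells per well. There is one well per dose, and wells with fewer than 20 cells were discarded.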
Structure (SMILES),progenitor-like (log2) (0.1 µM),progenitor-like (log2) (1 µM),progenitor-like (log2) (10 µM)
COc1cccc(Oc2cccc3nc(Nc4ccc(C(C)C)cc4)nc(N)c23)c1 (collection day: 2),0.366,-0.206,
c1ccc2c(-c3cnn4cc(-c5ccc(N6CCNCC6)cc5)cnc34)ccnc2c1 (collection day: 2),-0.492,,
c1ccc2c(Oc3nc(Nc4ccc(N5CCOCC5)cc4)c4ncn(C5CCCCC5)c4n3)cccc2c1 [Purmorphamine] (collection day: 2),0.0317,0.341,0.596
COc1cc2c(cc1-c1c(C)noc1C)ncc1[nH]c(=O)n([C@H](C)c3ccccn3)c12 [I-BET 151 dihydrochloride] (collection day: 2),0.462,0.316,-0.585
CCc1ccc(CCOc2ccc(CC3SC(=O)NC3=O)cc2)nc1 (stereo not given) [Pioglitazone hydrochloride] (collection day: 2),-0.0995,0,0.508
Nc1[nH]ncc1-c1cc(Cl)ccc1Oc1cc(F)c(S(=O)(=O)Nc2cscn2)cc1Cl (collection day: 2),0.263,0.209,0.366
CN1CCC[C@@H]1CCO[C@](C)(c1ccccc1)c1ccc(Cl)cc1 [Clemastine fumarate] (collection day: 1),0.541,0.628,
c1cc(-c2cnn3cc(-c4ccc(OCCN5CCCCC5)cc4)cnc23)ccn1 [Dorsomorphin dihydrochloride] (collection day: 1),0.399,0,
O=c1n(CCCN2CCN(c3cccc(Cl)c3)CC2)nc2ccccn12 [Trazodone hydrochloride] (collection day: 2),0,0.123,0.181
O=S(=O)(NCCNC/C=C/c1ccc(Br)cc1)c1cccc2cnccc12 [H 89 dihydrochloride] (collection day: 1),0.126,0.399,
COc1cc2nc(N3CCCN(C)CC3)nc(NC3CCN(Cc4ccccc4)CC3)c2cc1OC (collection day: 2),0,0.0627,
Cc1ccccc1NC(=O)Nc1ccc(CC(=O)N(C)[C@@H](CC(C)C)C(=O)NCC[C@H](NC(=O)[C@@H]2CCCN2S(=O)(=O)c2cc(Cl)cc(Cl)c2)C(=O)O)cc1 (collection day: 2),0.0931,0,-0.134
Cc1nn(-c2ccccc2)c(C)c1C=NN1CCN(Cc2ccccc2)CC1 (collection day: 1),0.184,-0.29,0.71
CC(C)(C)c1ccc(S(=O)(=O)NCc2ccc(C(=O)Nc3cccnc3)cc2)cc1 (collection day: 2),0.152,0.462,
CC(=O)Nc1ccc(C(=O)Nc2ccccc2N)cc1 (collection day: 1),0.628,0.967,-2.14
NC(=O)c1ccc(-c2nc(-c3ccccn3)c(-c3ccc4c(c3)OCO4)[nH]2)cc1 (collection day: 1),0.0641,-0.211,-0.459

# Exported as tab-separated lines: part of the list above.
Structure (SMILES)	progenitor-like (log2) (0.1 µM)	progenitor-like (log2) (1 µM)	progenitor-like (log2) (10 µM)
c1ccc2c(-c3cnn4cc(-c5ccc(N6CCNCC6)cc5)cnc34)ccnc2c1 (collection day: 2)	-0.492		
c1ccc2c(Oc3nc(Nc4ccc(N5CCOCC5)cc4)c4ncn(C5CCCCC5)c4n3)cccc2c1 [Purmorphamine] (collection day: 2)	0.0317	0.341	0.596
